Assay results taken from paper doi:10.1101/2024.05.17.594698.
No constants are given. Whether binding was seen depends on the method and setting. Some results given as binding are weak or reduced against the parent protein; the word gives no strength.

Amino acid sequences for entries named in this document (tags omitted).
UniProt P54619: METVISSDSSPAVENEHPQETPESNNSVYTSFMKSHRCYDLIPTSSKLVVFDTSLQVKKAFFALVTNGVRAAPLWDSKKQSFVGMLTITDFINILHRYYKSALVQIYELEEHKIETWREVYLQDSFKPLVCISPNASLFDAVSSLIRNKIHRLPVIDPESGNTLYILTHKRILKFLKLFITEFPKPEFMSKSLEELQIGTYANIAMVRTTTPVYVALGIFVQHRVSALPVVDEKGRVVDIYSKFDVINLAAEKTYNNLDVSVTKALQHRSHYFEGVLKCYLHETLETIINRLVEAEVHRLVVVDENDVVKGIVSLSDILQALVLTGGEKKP

Biological target: recombinant AMPK γ1 chain, His-tagged (UniProt P54619)
Experiment: co-IP

binding: binds
B1: recombinant sestrin 2 (protein, UniProt P58004 1-480)
chain: MIVADSECRAELKDYLRFAPGGVGDSGPGEEQRESRARRGPRGPSAFIPVEEVLREGAESLEQHLGLEALMSSGRVDNLAVVMGLHPDYFTSFWRLHYLLLHTDGPLASSWRHYIAIMAAARHQCSYLVGSHMAEFLQTGGDPEWLLGLHRAPEKLRKLSEINKLLAHRPWLITKEHIQALLKTGEHTWSLAELIQALVLLTHCHSLSSFVFGCGILPEGDADGSPAPQAPTPPSEQSSPPSRDPLNNSGGFESARDVEALMERMQQLQESLLRDEGTSQEEMESRFELEKSESLLVTPSADILEPSPHPDMLCFVEDPTFGYEDFTRRGAQAPPTFRAQDYTWEDHGYSLIQRLYPEGGQLLDEKFQAAYSLTYNTIAMHSGVDTSVLRRAIWNYIHCVFGIRYDDYDYGEVNQLLERNLKVYIKTVACYPEKTTRRMYNLFWRHFRHSEKVHVNLLLLEARMQAALLYALRAITRYMT
